Non-standard residues stand in square brackets, D forms with d. Nle = CCCC[C@H](N)C(=O)O; Aib = CC(C)(N)C(=O)O
Columns and labels:
[1] = general procedure: Fmoc solid-phase peptide synthesis; Rink Amide AM LL; settings: whole synthesis, trifluoro acetate salt
[2] = general procedure: Fmoc solid-phase peptide synthesis; Rink amide AM resin (Rink Amide AM LL, NovaBiochem); settings: whole synthesis; for isolated mass: TFA salt; for final HPLC purity: UV; for final HPLC purity / isolated yield: scale of the general procedure approximately 0.11 mmol, trifluoro acetate salt

Substance | crude mass [1] | isolated mass [2] | final HPLC purity [2] | isolated yield [2] | crude mass ([1]; scale 0.11 mmol)
Ac-LEGREKVRAQI[Aib][Aib]EGQSTWS[Aib]RKK-NH2 | 200 mg | m=50 mg | 93% | 14% | –
Ac-LEGREKVRAQI[Aib][Aib]EG[Nle]SQWS[Aib]RRR-NH2 | 140 mg | m=44 mg | 96% | 12% | –
Ac-LEGREKVRAQI[Aib][Aib]EG[Nle]STWS[Aib]RKK-NH2 | – | m=73 mg | 98% | 21% | 250 mg
Ac-LEGREKVRAQI[Aib][Aib]EG[Nle]STYS[Aib]RKK-NH2 | 169 mg | m=54 mg | 97% | 15% | –
Ac-Leu-Glu-Gly-Arg-Glu-Lys-Val-Arg-Ala-K(Ac)-Ile-Aib-Aib-Glu-Gly-Nle-Ser-Thr-Trp-Ser-Aib-Arg-Lys-K(Ac)-NH2 | 250 mg | m=70 mg | 97% | 20% | –

— patent US10988524B2 (priority 2018, dated 2021)
